PubChem BioAssay AID504444 (National Center for Advancing Translational Sciences (NCATS), 2011)
Screen size: about 360,000 compounds; about 7,500 (2.1%) were called active. The inconclusive results got no clear call from the source; some entries with a clear call stand among them for comparison. The call rests on the fitted dose curve; in most records, active means well fitted inhibition curve with a large enough effect; inconclusive means small, poorly fitted or top-dose-only effect, or effect the other way; inactive means flat fitted curve, though single readings scatter. Where the call is inconclusive, the potency comes from a doubtful curve fit.

Experiment: Nrf2 qHTS screen for inhibitors; further: nearly all actives have a fitted effect of over 60% in size
Conditions: A549 ARE-Fluc reporter, luciferase luminescence, 18-24 h; activity change, negative = inhibition: at 46 µM (top of the series)
Outline: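 Nrf2 function is reported as luminescence of an ARE-controlled luciferase in A549 cells. Compounds were tested at several concentrations, and a CellTiter-Fluor read on the same wells flagged cytotoxicity.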
On the % scale 0 is the no-effect control and ±100 the full control effect; potency means the concentration at half of the fitted maximal effect.

| SMILES | Potency | activity change, negative = inhibition |
| --- | --- | --- |
| O=C(Nc1cccc(-c2nc3ccccc3[nH]2)c1)c1ccc(C(=O)Nc2cccc(-c3nc4ccccc4[nH]3)c2)cc1 | inconclusive: 5.8 µM [activator, full curve, poor fit] |  |
| CCCCn1c(CNC(=O)C23CC4CC(CC(C4)C2)C3)nnc1SCC(=O)Nc1ccc(C)cc1 | inconclusive: 29.1 µM [falling, single point] |  |
| CCOC(=O)c1ccc(NCc2nc3ccccc3n2C)cc1 | inconclusive: 8.2 µM [activator, partial curve, poor fit] |  |
| Cc1csc(NC(=O)c2cccc(Cn3nc(C)c(Br)c3C)c2)n1 | inconclusive: 29.1 µM [falling, single point] |  |
| COc1ccccc1CN(Cc1nc2ccccc2c(=O)[nH]1)S(=O)(=O)c1ccc2ccccc2c1 | inconclusive: 29.1 µM [falling, single point] |  |
| Cc1ccc(CN(C(=O)COc2ccccc2Cl)c2ccccn2)o1 | inconclusive: 2.59 µM [activator, partial curve, poor fit] |  |
| CCC(C)Sc1nc2c(c(=O)[nH]c(=O)n2C)n1Cc1ccccc1Cl (configuration not stated) | inconclusive: 2.31 µM [falling, full curve, poor fit] |  |
| Cc1cccc(NC(=O)Cn2c(=O)n(Cc3ccc4c(c3)OCO4)c(=O)c3oc4ccccc4c32)c1C |  | inactive: -2% |
| Cc1cccc(N2C(=O)NC3(CCCCC3)C2=O)c1 | inconclusive: 0.82 µM [activator, single point] |  |
| COc1cccc2oc3ccc(C#Cc4ccccn4)cc3c(=O)c12 | inconclusive: 5.8 µM [activator, partial curve] |  |
| CC(=O)c1cccc(NC(=O)c2cnn3ccccc23)c1 |  | inactive: 18% |
| CC1CCN(S(=O)(=O)c2ccc(C(=O)Nc3nnc(C4CC4)o3)cc2)CC1 | active: 11.6 µM |  |
| OCC1CCN(Cc2nc(Cc3ccccc3Cl)no2)CC1 | inconclusive: 32.6 µM [activator, single point] |  |
| COC(=O)c1cccc(-c2ccc(C(c3c(C)[nH][nH]c3=O)c3c(C)[nH][nH]c3=O)o2)c1 |  | inactive: -7.84% |
| Cc1cc(C)c2sc(N(CCN(C)C)C(=O)c3c(F)cccc3F)nc2c1 |  | inactive: 11.6% |
| CC(C)(C)C1CCc2c(sc(NC(=O)C3c4ccccc4Oc4ccccc43)c2C(N)=O)C1 (configuration not stated) | inconclusive: 8.2 µM [activator, partial curve, poor fit] |  |
| CCn1cc(S(=O)(=O)c2cc(C)cc(C)c2)c(=O)c2cc(F)c(N3CCCCC3)cc21 | inconclusive: 32.6 µM [falling, single point] |  |
| C=C(CC[C@@H](O)C(C)(C)O)[C@H]1CC[C@]2(C)[C@@H]1CCC1[C@@]3(C)CCC(=O)C(C)(C)C3CC[C@]12C (some centres not stated) | inconclusive: 18.4 µM [falling, single point] |  |
| C/C(O)=C(\C#N)c1nc2ccccc2[nH]1 | inconclusive: 14.6 µM [falling, partial curve, poor fit] |  |
| Cn1cccc1/C=C1/SC(=S)N(CC(=O)O)C1=O |  | inactive: -23.3% |
| COc1ccc(OC)c(CNC(=O)Nc2cn(CC(C)C)c(=O)c3ccccc23)c1 | inconclusive: 0.82 µM [falling, full curve, poor fit] |  |

| SMILES | Potency | activity change, negative = inhibition |
| --- | --- | --- |
| Cc1cccc(C)c1OCC(O)CNS(=O)(=O)c1ccccc1C(=O)N1CCCCC1 (configuration not stated) | inconclusive: 29.1 µM [falling, single point] |  |
| CCc1ccc(-n2nc3cc(C)c(N)cc3n2)cc1 | inconclusive: 23.1 µM [activator, single point] |  |
| CC(C)(C)Nc1ncnc2sc(-c3ccccc3)cc12 | active: 11.6 µM |  |
| CCC(=O)Nc1c(S(=O)(=O)c2ccccc2)c2nc3ccccc3nc2n1C(C)c1ccccc1 (configuration not stated) | active: 18.4 µM |  |
| Fc1ccccc1-c1nc(N2CCN(c3cccc(Cl)c3)CC2)c2ccccc2n1 |  | inactive: -25% |
| CCCCCCCCCCCCCCCCn1cc[n+](CC(C)=O)c1 | inconclusive: 29.1 µM [falling, single point] |  |
| CCOc1ccc(-c2c(C(=O)N/N=C/c3ccco3)nnn2-c2nonc2N)cc1 | inconclusive: 29.1 µM [falling, single point] |  |
| NC(=O)c1cc(S(=O)(=O)N2CCOCC2)ccc1Sc1ccccc1N |  | inactive: -6.91% |
| O=C(COC(=O)c1ccc(O)cc1)c1ccc(S(=O)(=O)N2CCCCC2)cc1 | inconclusive: 25.9 µM [falling, single point] |  |
| O=C(Nc1ccc(N2CCCCC2)c(C(=O)O)c1)c1ccco1 |  | inactive: 16.5% |
| O=C(NN=C1CCCC1)c1ccc(Cl)cc1 |  | inactive: 11.3% |
| COCCNC(=O)Cn1ccc2cc(S(=O)(=O)N3CCCCCC3)ccc21 | inconclusive: 0.13 µM [activator, full curve, poor fit] |  |
| O=C(Nc1ccc(NC(=O)c2cccs2)cn1)c1ccccc1 | inconclusive: 1.3 µM [activator, full curve, poor fit] |  |
| Cc1ccc(OCc2cc(C(=O)N3CCN(C4CCCCC4)CC3)no2)cc1C | inconclusive: 14.6 µM [activator, partial curve, poor fit] |  |
| COc1cccc(C(=O)NCc2cn3ccsc3n2)c1 |  | inactive: 11.3% |
| O=C(Nc1ccc(S(=O)(=O)N2CCCCC2)cc1)C1CC(=O)N(c2ccccc2)C1 (configuration not stated) | inconclusive: 18.4 µM [falling, partial curve, poor fit] |  |
| Cc1cccc(NC(=S)N/N=C/c2c[nH]c3ccccc23)c1 | inconclusive: 2.06 µM [activator, partial curve, poor fit] |  |
| CCN(CC)CCN1c2ccccc2Sc2ccc3ccccc3c21 | inconclusive: 29.1 µM [activator, single point] |  |
| COCCn1c(Cc2ccccc2)nnc1SCC(=O)NC(C)C | inconclusive: 25.9 µM [activator, partial curve, poor fit] |  |
| CCC(C(=O)OC)n1c(-c2ccccc2)nc2ccccc2c1=O (configuration not stated) | inconclusive: 5.17 µM [falling, partial curve, poor fit] |  |
| Cc1ccc(NC(=O)NC2=N/C(=C(/C#N)C(=O)N3CCCC3)c3ccccc32)cc1 | inconclusive: 0.082 µM [falling, partial curve, poor fit] |  |
